The values that follow come from patent publication EP2652508B1.

Chains of the proteins cited; added tags and fusions are not shown. Lines headed by an entry give the natural chain unless they say otherwise; changes in a name come on top. Residues count along the entry.
UniProt P32302: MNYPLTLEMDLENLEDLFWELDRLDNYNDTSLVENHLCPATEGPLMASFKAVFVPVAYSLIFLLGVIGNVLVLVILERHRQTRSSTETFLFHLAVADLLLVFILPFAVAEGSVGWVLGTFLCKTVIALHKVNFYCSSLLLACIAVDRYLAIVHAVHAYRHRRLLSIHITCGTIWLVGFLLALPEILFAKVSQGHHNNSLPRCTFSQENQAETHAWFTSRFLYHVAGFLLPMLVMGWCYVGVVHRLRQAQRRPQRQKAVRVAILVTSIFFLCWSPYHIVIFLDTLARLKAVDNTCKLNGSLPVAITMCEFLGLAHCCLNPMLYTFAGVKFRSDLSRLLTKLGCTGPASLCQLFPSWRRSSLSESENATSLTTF
UniProt P61072: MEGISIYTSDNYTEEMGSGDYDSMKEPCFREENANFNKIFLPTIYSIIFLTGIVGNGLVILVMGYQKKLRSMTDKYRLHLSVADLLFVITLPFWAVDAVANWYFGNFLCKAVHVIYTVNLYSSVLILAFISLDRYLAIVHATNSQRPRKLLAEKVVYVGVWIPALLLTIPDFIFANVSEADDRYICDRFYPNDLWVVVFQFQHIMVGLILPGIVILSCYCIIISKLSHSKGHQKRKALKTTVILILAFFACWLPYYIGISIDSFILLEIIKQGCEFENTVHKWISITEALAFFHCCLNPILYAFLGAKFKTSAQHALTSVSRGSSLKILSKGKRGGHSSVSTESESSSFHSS
UniProt P04899, residues 2-355: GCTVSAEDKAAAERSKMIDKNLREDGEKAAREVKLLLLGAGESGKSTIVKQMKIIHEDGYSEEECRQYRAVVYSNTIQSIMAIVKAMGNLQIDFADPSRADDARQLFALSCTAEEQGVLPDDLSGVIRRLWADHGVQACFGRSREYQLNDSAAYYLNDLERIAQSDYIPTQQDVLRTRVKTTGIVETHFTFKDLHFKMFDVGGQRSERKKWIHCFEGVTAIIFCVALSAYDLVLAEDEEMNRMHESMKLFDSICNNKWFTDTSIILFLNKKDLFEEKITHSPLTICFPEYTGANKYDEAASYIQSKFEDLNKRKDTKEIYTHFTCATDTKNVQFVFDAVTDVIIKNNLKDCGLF
UniProt Q14344: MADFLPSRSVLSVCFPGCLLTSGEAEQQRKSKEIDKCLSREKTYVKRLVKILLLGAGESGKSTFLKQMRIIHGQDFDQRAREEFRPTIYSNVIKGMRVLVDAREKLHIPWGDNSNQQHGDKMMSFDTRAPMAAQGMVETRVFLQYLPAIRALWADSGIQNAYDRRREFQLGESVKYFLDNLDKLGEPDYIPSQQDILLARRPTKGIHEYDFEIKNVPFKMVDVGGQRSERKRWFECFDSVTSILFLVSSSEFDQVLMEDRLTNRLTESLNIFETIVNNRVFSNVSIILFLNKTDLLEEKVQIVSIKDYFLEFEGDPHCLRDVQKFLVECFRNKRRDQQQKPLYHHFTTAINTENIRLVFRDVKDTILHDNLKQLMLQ

Assay [1] concerns the target CXCR5 (human) (UniProt P32302). Kind of assay: co-immunoprecipitation, legend of FIGS. 11A-B.
Assay [2] has as its target CXCR5 (human) (UniProt P32302). Kind of assay: co-immunoprecipitation from prostate cell lysates: IP of Gαi2, immunoblot for CXCR5. Background: In western blotting, separated proteins are transferred to a membrane and probed.
Assay [3] deals with CXCR4 (Pan troglodytes (Chimpanzee)) (UniProt P61072). The assay can be described thus: co-immunoprecipitation from prostate cell lysates: IP of Gα13, immunoblot for CXCR4.
Assay [4] concerns the target CXCR5 (human) (UniProt P32302). The assay can be described thus: co-immunoprecipitation from prostate cell lysates: IP of Gα13, immunoblot for CXCR5.
Assay [5] concerns the target CXCR5 (human) (UniProt P32302). The assay can be described thus: co-immunoprecipitation, legend of FIGS. 12A-C.
Assay [6] has as its target CXCR4 (Pan troglodytes (Chimpanzee)) (UniProt P61072). The assay can be described thus: co-immunoprecipitation, legend of FIGS. 12A-C.
Assay [7] deals with CXCR5 (human) (UniProt P32302). Kind of assay: imaging flow cytometry (Amnis Imagestream) of LNCaP and PC3 cells stained with anti-CXCR5 and anti-CXCL13 antibodies; signal correlation between CXCR5 and CXCL13.
Assay [8] addresses CXCR5 (human) (UniProt P32302). The assay can be described thus: imaging flow cytometry, legend of FIGS. 22A-B.

These are yes or no findings as the source states them, for the method shown. For some assays here: In cells and extracts the contact can be indirect. Some results given as binding are weak or reduced against the parent protein; the word gives no strength.

For the molecule Gαi2 (from UniProt P04899 2-355), the binding entry with CXCR5 (human) [1] and in the assay with CXCR5 (human) [2] was “binds” in each case.
Gα13 (from UniProt Q14344 1-377): the binding result (in assay [3]; with CXCR5 (human) [4]; in the assay with CXCR5 (human) [5]; in assay [6]) was “binds” in each case.

B1: CXCL13 (ligand)
chain: VLEVYYTSLRCRCVQESSVFIPRRFIDRIQILPRGNGCPRKEIIVWKKNKSIVCVDPQAEWIQRMMEVLRKRSSSTLPVPVFKRKIP
On to B1, for which the binding entry with CXCR5 (human) [7] and with CXCR5 (human) [8] was “binds” throughout.
